No constants are given. Whether binding was seen depends on the method and setting. Binding seen in cells or lysates may run through a third protein. Some binding calls cover weakened binding; strength is not graded here.
T1: CD9 (mouse sperm) (mouse (endogenous in sperm)), P40240
T1 chain: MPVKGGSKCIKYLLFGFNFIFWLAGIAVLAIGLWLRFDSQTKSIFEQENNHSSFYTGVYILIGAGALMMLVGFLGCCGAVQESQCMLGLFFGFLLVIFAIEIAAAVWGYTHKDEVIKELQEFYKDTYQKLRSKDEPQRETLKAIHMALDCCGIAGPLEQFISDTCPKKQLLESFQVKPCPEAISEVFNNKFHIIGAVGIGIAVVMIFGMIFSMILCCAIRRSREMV

Sequences of proteins named here, by UniProt entry; tags and fusion partners are left off.
UniProt P21926: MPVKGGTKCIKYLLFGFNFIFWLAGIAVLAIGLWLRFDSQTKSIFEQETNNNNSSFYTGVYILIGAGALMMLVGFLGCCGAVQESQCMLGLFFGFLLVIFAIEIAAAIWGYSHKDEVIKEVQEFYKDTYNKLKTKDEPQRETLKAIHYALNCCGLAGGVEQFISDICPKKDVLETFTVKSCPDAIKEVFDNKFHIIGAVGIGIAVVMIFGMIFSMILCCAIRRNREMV


Key:
[1] = target: CD9 (human sperm) (human (endogenous in sperm)) (UniProt P21926); assay: co-IP; CD9 precipitated with polyclonal rabbit anti-CD9 (H-110) and Protein G Dynabeads from 1% CHAPS lysates of 5 x 10^7 sperm (mouse epididymal; human ejaculated, capacitated, acrosome-reacted), 4 °C, three RIPA washes; blot with polyclonal rabbit anti-CD81 (H-121)
[2] = target: T1, CD9 (mouse sperm) (mouse (endogenous in …)); assay: as above; conditions: remark: other sources report otherwise

| binding [1] | binding [2] | Molecule |
| --- | --- | --- |
| binds | – | CD81 (human sperm) (from UniProt P60033 1-236) |
| – | no binding | CD81 (mouse sperm), P35762 1-236 (protein) MGVEGCTKCIKYLLFVFNFVFWLAGGVILGVALWLRHDPQTTSLLYLELGNKPAPNTFYVGIYILIAVGAVMMFVGFLGCYGAIQESQCLLGTFFTCLVILFACEVAAGIWGFVNKDQIAKDVKQFYDQALQQAVMDDDANNAKAVVKTFHETLNCCGSNALTTLTTTILRNSLCPSGGNILTPLLQQDCHQKIDELFSGKLYLIGIAAIVVAVIMIFEMILSMVLCCGIRNSSVY |
